Measured values as given in US20220380484A1 (MONASH UNIVERSITY, published 2022).
No constants are given. Whether binding was seen depends on the method and setting. A result given as binding can be weak or reduced; the word gives no strength.

Tests used:
[1] = biological target: plasminogenR561A,S741A (human); experiment: SPR competition; 10 nM plasminogen R561A,S741A with G05 at 0 to 500 nM passed over immobilised streptokinase (the blocked partner) [6B]
[2] = biological target: plasminogenR561A,S741A (human); experiment: SPR competition: 10 nM plasminogen with G05 at 0, 62.5, 125, 250 and 500 nM over immobilised streptokinase (competitor)

B1: G05 antibody (scFv, V domains shown)
VH: AVTLDESGGGLQTPGRALSLVCKASGFTFSSYAMHWVRQAPGKGLEFVAGIDNIGSYTRYGAAVKGRVTISRDNGQSIVRLQLDNLRAEDTGTYYCAKSAYGGSCCGPAYIDAWGHGTEVIVSS
VL: QAALTQPSSVSANPGETVEITCSGGGRSSYYGWYQQKSPGSAPVTLIYDNTNRPSNIPSRFSGSKSGSTATLTITGVQGEDEAVYFCGSADSSTTGIFGAGTTLTVL
notes: Chicken antibody from an scFv library (VH and VL joined by a flexible linker); also called scFv fragment of G05
B1 was tested. Which binding [1] did it give?
The binding was “binds”.

What about the binding [2] of the same binder?
Its binding is “binds”.
